Assay results reported in the supplement of paper PMC12823440, “Inhibitors supercharge kinase turnover through native proteolytic circuits” (Nature, 2025).
This is one part of the list. Hit calls seldom repeat between salt and free forms of one compound.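 In K562 cells expressing nanoluciferase-fused kinases, luminescence was recorded at 4 h intervals between 2 and 18 h, normalized as percent of control with DMSO at 100% and a positive control at 0%. A significant (2 sigma) signal drop marks a time point as decreased. The authors' rule for a hit is not shown and takes in more than the number of time points.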

The chains behind the UniProt entries cited, without tags or fusion partners. Where a name states a change or a piece, a line headed by the entry shows the natural chain unless it says otherwise.
UniProt Q15118, whole entry, looked up: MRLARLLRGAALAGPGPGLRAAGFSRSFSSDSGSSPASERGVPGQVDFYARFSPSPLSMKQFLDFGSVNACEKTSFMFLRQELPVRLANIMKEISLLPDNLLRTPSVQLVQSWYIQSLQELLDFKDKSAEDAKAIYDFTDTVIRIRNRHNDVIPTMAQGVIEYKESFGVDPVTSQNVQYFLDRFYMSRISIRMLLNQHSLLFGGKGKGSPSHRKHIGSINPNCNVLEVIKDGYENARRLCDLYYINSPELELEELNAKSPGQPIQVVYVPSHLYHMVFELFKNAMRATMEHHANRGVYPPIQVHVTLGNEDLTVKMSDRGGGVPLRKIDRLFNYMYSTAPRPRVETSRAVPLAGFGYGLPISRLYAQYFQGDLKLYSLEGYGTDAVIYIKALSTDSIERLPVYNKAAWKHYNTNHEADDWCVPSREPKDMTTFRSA
UniProt O15530: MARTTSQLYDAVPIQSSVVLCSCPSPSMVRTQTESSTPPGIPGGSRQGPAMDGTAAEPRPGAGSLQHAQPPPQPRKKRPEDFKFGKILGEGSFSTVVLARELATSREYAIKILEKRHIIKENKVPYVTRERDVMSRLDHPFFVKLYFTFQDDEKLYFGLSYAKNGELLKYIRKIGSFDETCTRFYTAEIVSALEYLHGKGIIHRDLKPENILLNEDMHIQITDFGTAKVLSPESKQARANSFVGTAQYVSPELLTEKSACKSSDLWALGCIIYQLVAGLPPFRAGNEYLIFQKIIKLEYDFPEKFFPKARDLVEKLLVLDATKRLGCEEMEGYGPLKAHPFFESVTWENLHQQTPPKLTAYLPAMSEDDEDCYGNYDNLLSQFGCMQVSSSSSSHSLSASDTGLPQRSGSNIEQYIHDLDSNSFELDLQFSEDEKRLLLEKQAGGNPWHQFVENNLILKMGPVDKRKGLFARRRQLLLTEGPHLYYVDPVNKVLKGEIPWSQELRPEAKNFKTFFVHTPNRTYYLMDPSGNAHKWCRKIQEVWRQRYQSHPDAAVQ

target: PDK1 (UniProt Q15118); assay: number of time points (of 5) at which kinase-Nluc abundance scored as decreased, DMSO-normalised (count); higher = more persistent destabilization; settings: K562; 2-18 h

| SMILES | number of time points |
| --- | --- |
| O=C(NCCN1CCOCC1)Nc1nc2ccc(Sc3nnc4ccc(-c5ccc(F)cc5)nn34)cc2s1 (10 µM) | 0 |
| COc1cc(F)ccc1-c1ncnc(Nc2cccc(C[S@](C)(=N)=O)c2)n1 [Atuveciclib] (2.5 µM) | 0 |
| CCn1c(-c2nonc2N)nc2c(C#CC(C)(C)O)ncc(OC[C@H]3CCCNC3)c21 (10 µM) | 0 |
| O=c1[nH]ccc2nc(-c3ccc(CN4CCC(c5nc(-c6ccccn6)n[nH]5)CC4)cc3)c(-c3ccccc3)cc12 (10 µM) | 0 |
| COCCOc1ccc2c(c1)ncn2-c1ccc2cccc(N3CCC(N)CC3)c2n1 (10 µM) | 0 |
| CN1CCC(CNc2ccc3ncc(-c4cccc(OC(F)(F)F)c4)n3n2)CC1 (2.5 µM) | 0 |
| Cc1cc(C(=O)NC(C)(C)C)cc(C#Cc2ccc3c4c(oc3c2)C(C)(C)c2cc(NS(C)(=O)=O)ccc2C4=O)n1 (10 µM) | 0 |
| CC(O)(C#Cc1ccc2c(c1)N(c1nc(N)ncc1Cl)CC2)c1nccs1 (stereo not drawn) (2.5 µM) | 0 |
| COc1cc(-c2cc(-c3ccc(N4CCNCC4)cc3)cnc2C)cc(OC)c1OC (10 µM) | 0 |
| Cn1c(CNc2cccc(C(=O)NCc3ccccc3C(F)(F)F)c2)nnc1-c1ccncc1 (10 µM) | 0 |

target: PDPK1 (UniProt O15530); assay: as above; settings: K562; 2-18 h

| SMILES | number of time points |
| --- | --- |
| O=Nc1c(-c2c(O)[nH]c3cc(Br)ccc23)[nH]c2ccccc12 [GSK 3 Inhibitor IX] (2.5 µM) | 0 |
| Cn1c2cc([S+](C)[O-])sc2c2cnn(Cc3cccc(N)c3)c(=O)c21 (stereo not drawn) (2.5 µM) | 0 |
| Cc1cc(-n2c(=O)ccc3c[nH]c4nccc-4c32)ccc1F (10 µM) | 0 |
| CCCn1/c(=N/C(=O)c2cccc(C(N)=O)c2)[nH]c2ccccc21 [Takinib] (10 µM) | 0 |
| CO[C@H]1C[C@@H]2CC[C@@H](C)[C@@](O)(O2)C(=O)C(=O)N2CCCC[C@H]2C(=O)O[C@H]([C@H](C)C[C@@H]2CC[C@@H](OCCO)[C@H](OC)C2)CC(=O)[C@H](C)/C=C(\C)[C@@H](O)[C@@H](OC)C(=O)[C@H](C)C[C@H](C)/C=C/C=C/C=C/1C [Everolimus] (10 µM) | 0 |
| Cc1cccc(-c2[nH]ncc2-c2ccnc3ccccc23)n1 (10 µM) | 0 |
| CC1(N)CCN(c2cccnc2NC(=O)c2nc(-c3ncccc3C(F)(F)F)cnc2N)CC1 [Darovasertib] (10 µM) | 0 |
| COc1cc2c(cc1Nc1ncc(C(N)=O)c(Nc3c(F)cccc3C(F)(F)F)n1)CN(C)CC2 (2.5 µM) | 0 |
| COc1cc2ncnc(Nc3ccc(O)c(Br)c3)c2cc1OC (10 µM) | 2 |
| Nc1nc2c(nc(Br)n2[C@@H]2O[C@@H]3COP(=O)(O)O[C@H]3[C@H]2O)c(=O)[nH]1 [8-Bromo-cGMP (sodium)] (10 µM) | 0 |
| O=c1c2c([nH]n1-c1nc3ccccc3s1)CCCC2 (10 µM) | 0 |
| COC(=O)Nc1ccc(-c2nc(N3CCOCC3)c3cnn(C4CCN(Cc5cccnc5)CC4)c3n2)cc1 (10 µM) | 0 |
| N[C@@H]1CCCN(c2c(/C=C3\SC(=O)NC3=O)cccc2-c2ccccc2)C1 (10 µM) | 0 |
| Nc1nc(N)c2nc(-c3cccc(O)c3)c(-c3cccc(O)c3)nc2n1 (10 µM) | 0 |
| Cn1ncc(NC(=O)c2nc(-c3c(F)cccc3F)sc2N)c1N1CC[C@@H](N)[C@H](F)CC1 (10 µM) | 2 |
| C=C1C(=O)[C@@]23[C@H](O)C[C@@H]4C(C)(C)C(=O)CC[C@@]4(C)[C@@H]2CC[C@@H]1[C@H]3O [Glaucocalyxin A] (2.5 µM) | 0 |
| O=C(NCCO)c1cc(C(=O)NCCO)cc(C(=O)NCCO)c1 (10 µM) | 0 |
| CCC(=O)Nc1cccc(Oc2nc(Nc3ccc(N4CCN(C)CC4)cc3OC)ncc2Cl)c1 (10 µM) | 0 |
| Cc1nn(C)cc1-c1nc2c(N3CCN(Cc4ccc(Cl)cc4)CC3)c(Cl)cnc2[nH]1 (10 µM) | 0 |

| SMILES | number of time points |
| --- | --- |
| CC(C)Oc1ccc(F)c(-c2cnc(N)c(C(=O)Nc3cnccc3N3CCC[C@@H](C(=O)O)C3)n2)c1 (2 µM) | 0 |
| Nc1ncc(C(=O)NC2CN(C(=O)C3CC3)C2)c2ccc(-c3cccc(F)c3)nc12 (2 µM) | 0 |
| O=C(ON=C1c2ccccc2-c2nc3ccccc3nc21)c1ccco1 (2.5 µM) | 0 |
| CC(C)=CC[C@@H](O)C1=CC(=O)c2c(O)ccc(O)c2C1=O [Shikonin] (10 µM) | 0 |
| COC(=O)Nc1ccc(-c2nc(N3CCOCC3)c3cnn(C4CCN(C(=O)OC)CC4)c3n2)cc1 (10 µM) | 0 |
| CNC(=O)c1ccc2c(c1)ncn2-c1ccc(CC(=O)OC(C)(C)C)cc1 (10 µM) | 0 |
| O=C1CC[C@H](NC(=O)Cc2ccccc2)C(=O)N1 [Antineoplaston A10] (10 µM) | 0 |
| COCCOCCc1c(C)c2cc(OC)c(O)c(C=O)c2oc1=O (10 µM) | 0 |
| Cc1ccc(C(=O)NC2CC2)cc1-n1ncc(C(=O)c2cccc(C#N)c2)c1N [Acumapimod] (10 µM) | 0 |
| O=C(NCCN1CCOCC1)Nc1nc2ccc(Sc3nnc4ccc(-c5ccc(F)cc5)nn34)cc2s1 (10 µM) | 0 |
| COc1cc(F)ccc1-c1ncnc(Nc2cccc(C[S@](C)(=N)=O)c2)n1 [Atuveciclib] (2.5 µM) | 2 |
| CCn1c(-c2nonc2N)nc2c(C#CC(C)(C)O)ncc(OC[C@H]3CCCNC3)c21 (10 µM) | 0 |
| O=c1[nH]ccc2nc(-c3ccc(CN4CCC(c5nc(-c6ccccn6)n[nH]5)CC4)cc3)c(-c3ccccc3)cc12 (10 µM) | 0 |
| COCCOc1ccc2c(c1)ncn2-c1ccc2cccc(N3CCC(N)CC3)c2n1 (10 µM) | 4 |
| CN1CCC(CNc2ccc3ncc(-c4cccc(OC(F)(F)F)c4)n3n2)CC1 (2.5 µM) | 0 |
| Cc1cc(C(=O)NC(C)(C)C)cc(C#Cc2ccc3c4c(oc3c2)C(C)(C)c2cc(NS(C)(=O)=O)ccc2C4=O)n1 (10 µM) | 0 |
| CC(O)(C#Cc1ccc2c(c1)N(c1nc(N)ncc1Cl)CC2)c1nccs1 (stereo not drawn) (2.5 µM) | 0 |
| COc1cc(-c2cc(-c3ccc(N4CCNCC4)cc3)cnc2C)cc(OC)c1OC (10 µM) | 0 |
| Cn1c(CNc2cccc(C(=O)NCc3ccccc3C(F)(F)F)c2)nnc1-c1ccncc1 (10 µM) | 0 |
